Results are given in words; binding and its absence hold for the method and conditions named. Some binding calls cover weakened binding; strength is not graded here.
Target: protein (albumin) in blood (UniProt P02768)
Test: SDS-PAGE and fluorescence imaging of supernatants of 5-fold diluted whole blood spiked with 2 uM labelled peptide, before and after heat treatment

Sequences of proteins named here, by UniProt entry; tags and fusion partners are left off. Residues count along the entry.
UniProt P02768, residues 25-609: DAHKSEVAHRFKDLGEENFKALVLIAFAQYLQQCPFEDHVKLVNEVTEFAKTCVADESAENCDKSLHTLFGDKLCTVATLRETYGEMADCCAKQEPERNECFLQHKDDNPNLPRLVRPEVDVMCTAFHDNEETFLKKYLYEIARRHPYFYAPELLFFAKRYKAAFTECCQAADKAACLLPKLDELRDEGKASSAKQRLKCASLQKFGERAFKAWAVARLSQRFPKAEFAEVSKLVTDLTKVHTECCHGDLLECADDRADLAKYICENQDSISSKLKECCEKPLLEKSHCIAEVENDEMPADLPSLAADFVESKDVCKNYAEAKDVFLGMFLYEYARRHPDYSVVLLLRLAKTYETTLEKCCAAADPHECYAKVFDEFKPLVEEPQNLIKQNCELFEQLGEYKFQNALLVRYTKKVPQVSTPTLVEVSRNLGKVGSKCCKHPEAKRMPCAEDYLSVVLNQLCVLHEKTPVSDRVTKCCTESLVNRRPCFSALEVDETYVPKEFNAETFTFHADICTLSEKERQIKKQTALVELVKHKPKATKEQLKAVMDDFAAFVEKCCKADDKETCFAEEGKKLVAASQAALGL

binding: binds
Binder: CYIQNCPLG (tetramethyl rhodamine (TMR) label, position not stated) [TMR-oxytocin]

Source: US20170057991A1
